No constants are given. Whether binding was seen depends on the method and setting. In cells and extracts the contact can be indirect. Some entries that bind do so weakly or less than the wild type.

The chains behind the UniProt entries cited, without tags or fusion partners. Residues count along the entry.
UniProt P46821, residues 2207-2468: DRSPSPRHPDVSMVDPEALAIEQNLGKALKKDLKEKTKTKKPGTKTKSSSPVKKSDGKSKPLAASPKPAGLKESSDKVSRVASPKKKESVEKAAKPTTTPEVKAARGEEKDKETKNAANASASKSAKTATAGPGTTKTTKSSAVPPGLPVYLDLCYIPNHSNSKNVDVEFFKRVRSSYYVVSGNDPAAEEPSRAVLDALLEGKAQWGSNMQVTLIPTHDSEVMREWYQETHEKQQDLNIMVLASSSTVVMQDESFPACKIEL

The test addresses GST-MAP 1B-LC1 (microtubule-associated protein 1B light chain) (UniProt P46821). As to the kind of experiment: pull-down; 50 μg GST-MAP 1B-LC1 or GST on glutathione-Sepharose beads incubated with A549 cell lysate (1 mg) in 1 mL bacterial lysis buffer, 12 h, 4 °C; four washes; western blot with anti-hnRNP K; only the target purified.

“heterogeneous nuclear ribonucleoprotein K (from UniProt P61978 1-463)”: the binding result is recorded as “binds”.

For the origin of these results see publication PMC6731588.
